The supplement of paper PMC11237882
This is one part of the list. Values are worked out from sequencing counts and are noisy.

T1: Homer1 EVH1 domain
T1 chain: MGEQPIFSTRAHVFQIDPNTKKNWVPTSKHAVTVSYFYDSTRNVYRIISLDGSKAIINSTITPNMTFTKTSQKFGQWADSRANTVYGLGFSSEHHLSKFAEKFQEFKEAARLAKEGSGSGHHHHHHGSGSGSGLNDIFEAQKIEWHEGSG


Molecular target: T1, Homer1 EVH1 domain
Test: enrichment score (AUC of log2 frequency ratio across FACS sorting rounds) (log2 AUC); higher = stronger enrichment for Homer1 EVH1 binding
Work on PLCLYVVVGVSLLLAGIISLNRVRIEIPLEKENQDK yielded an enrichment score of 2.88.
Binder MAGRGFSWGPGHLNEDNARFLLLAALIVLYLLGGAA has an enrichment score of 3.74.
In the case of LGILEGIGILAVITNAFVIAITSDYIPRFVYEYKYG, the enrichment score is reported as 2.96.
Work on NYVFKNALRLGTFSAVLVTYAASALLHGFSFHLAAV yielded an enrichment score of 0.721.
With IAQGPASLYYYWVPLLTVIFGSYLIAHGFFSVYAMC the enrichment score was 2.42.
Binder KKFDTGDGMFLQWVLCAAIWLVALVVNLILHCPKFW has an enrichment score of -0.0704.
NYLQIDEEEYGGTWELTKEGFMTSFALFMVIWIIFY showed an enrichment score of 4.26.
Binder ACLAGIVFILSGLCSMTGCSLYANKITTEFFDPLFV has an enrichment score of 0.524.
In the case of AIQNVSFDISIVSLISLIWSLAILLLSKKYKQLPHM, the enrichment score is reported as 2.68.
Binder LFLGIITAAVLGGFKDMNPTLPALNCSVENTHPTVS has an enrichment score of 0.138.
Binder SDIEYLDFYKPVVWFWILVGLAYFAAVLSMIGDWLR has an enrichment score of 4.18.
Binder FTGFPQLQDGSLLYFFPLLFIYTFIIIDNLLIFSAV has an enrichment score of -1.54.
For MGHLSAPLHRVRVPWQGLLLTASLLTFWNPPTTAQL, the enrichment score was -1.15.
VLTATVLNVYASIFLITALSVARYWVVAMAAGPGTH gave an enrichment score of 3.82.
In the case of TGFIGLDIIASLCNMIMGLTLITLCTWAYIRYSGEY, the enrichment score is reported as 3.44.
For KTRHPRKIDLRARYWAFLFDNLRRAVDEIYVTCESD, the enrichment score was 1.39.
In the case of PAIGAYLGRVYGDSLMVVLATAIALLDICFILVAVP, the enrichment score is reported as 2.84.
MYAPPEPIIDYNMLVIFILAVGTVAAGGYWAGLTEA was tested, and the enrichment score was 5.15.
VSEPIRWKLLMLGLELLFGFFIPLMFMIFCYTFIVK gave an enrichment score of -0.0959.
Binder PRNDDIFKIIMAIVLFFFFSWIPHQIFTFLDVLIQL has an enrichment score of -5.09.
Work on PALALNQVTGFDLWGSVFATGIICTFYCTLGGLKAD yielded an enrichment score of -0.358.
Binder RQSPRRIKPVRIIPSSKRTDATIAKQLLQRAKKGAQ has an enrichment score of 2.46.
MQKLQLCVYIYLFMLIVAGPVDLNENSEQKENVEKE was tested, and the enrichment score was 0.469.
WMQGLIAVAVFLVLVAIAFAVNHFWCQEEPEPAHMI showed an enrichment score of 2.59.
Binder LGEDKFQWLAGLAPPSLFARAMQVLVTAISPGRFPK has an enrichment score of 3.03.
Binder MRQRLLPSVTSLLLVALLFPGSSQARHVNPSATEAL has an enrichment score of 3.02.
Binder NRTEPEVLCSIIAGLLHFLYPACFTWMLLEGLHLFL has an enrichment score of -0.326.
Binder VQQKNSLQSESGNLPLWLHKFFPYILLLFAILLYLP has an enrichment score of 0.523.
PQVGNLGLLFMLLFFIFAALGVELFGDLECDETHPW showed an enrichment score of 3.15.
MDNRFATTFVIACVLSLISTIYMAASIGTDFWYEYR showed an enrichment score of 3.3.
Binder SPYNLAYKYNFEYSVVFNMVLWIMIALALAVIITSY has an enrichment score of 2.28.
YVLYYLAIVGHSLSIFTLVISLGIFVFFRSLGCQRV showed an enrichment score of 1.4.
In the case of MPPSGLRLLLLLLPLLWLLVLTPGRPAAGLSTCKTN, the enrichment score is reported as 2.89.
With PVVIGIPAGAVFILGTLLLWLCQAQKKPFTPAPAPP the enrichment score was 1.72.
MSPVFPMLTVLTMFYYICLRRRARTATRGEMMNTHR showed an enrichment score of 2.35.
Work on MGLFDRGVQMLLTTVGAFAAFSLMTIAVGTDYWLYS yielded an enrichment score of 3.46.
TITNILALYTGIMSSFRSVQCFCIYTGMTLLFCYFY showed an enrichment score of 0.0682.
In the case of MGSGRRALSAVPAVLLVLTLPGLPVWAQNDTEPIVL, the enrichment score is reported as 4.
In the case of DDILILTVRLAVIVAVILTVPVLFFTDRSSLFELAK, the enrichment score is reported as -1.7.
Work on SCETILLNSPGPFPFIQDNISFYATIGVCLLFIVVL yielded an enrichment score of -0.668.
With VSATTMLTLWALAVMLAVEEALGQLELADRPSLIPT the enrichment score was 3.65.
WVHVLVPMGFVIGCYLDRKSDERLTAFRNKSMLFKR gave an enrichment score of 3.24.
IFPANPANISVALRALGSSYTIPEAWLLLANVVVVL showed an enrichment score of -0.707.
Binder MTEAWVGSFLIIILFLLQTETTLGLSSYQQKSISLY has an enrichment score of 2.16.
